According to patent US20200325230A1:
No constants are given. Whether binding was seen depends on the method and setting. Some results given as binding are weak or reduced against the parent protein; the word gives no strength.

Key:
[1] = target: cynomolgus BTLA expressed on HEK-293 cells (cynomolgus); experiment: flow cytometry on HEK-293 cells expressing cynomolgus BTLA
[2] = target: cynomolgus BTLA expressed on HEK-293 cells (cynomolgus); experiment: flow cytometry on HEK 293 cells expressing cynomolgus BTLA
[3] = target: cynomolgus BTLA expressed on HEK-293 cells (cynomolgus); experiment: flow cytometry, 293 cells expressing cynomolgus BTLA, fluorophore-conjugated anti-human IgG secondary

binding [1]: binds | binding [2]: binds | binding [3]: binds
B1: anti-BTLA antibody 13-F7A (antibody, V domains shown)
VH: EVQLLESGGGLVQPGGSLRLSCAASGFTSSSYGMSWVRQAPGKGLEWVSGISGSGGGTYYADSVKGRFTISRDNSKNTLYLQMNSLRAEDTAVYYCAKGDYYGSGSYPLFDYWGQGTLVTVSS
VL: AIQLTQSPSSLSASVGDRVTITCRASQDISSALAWYQQKPGKAPKLLISDASSLESGVPSRFSGSGSGTDFTLTISSLQPEDFATFYCQQFNNYPPTFGPGTKVDIK
